Test results reported in patent publication US6673368B2, “Colonic motor dysfunction remedies comprising aminothiazole derivatives as active ingredients” (Zeria Phamaceutical Co., Ltd., priority 2000, dated 2004).
Some entries share one result that the patent states for a list of compounds. For at least one compound, name, drawing or mass did not settle the structure.

Assays:
ICR mice = assay: Acute toxicity test; type: in vivo, mouse; details: ICR mice, 1,000 mg/kg oral in 0.5% methylcellulose, observed for 1 week
[1] = tested on: large intestines of male dogs; assay: Effects on colonic motor activity (force transducers, conscious dogs, postcibal period); type: in vivo; details: dog, intraduodenal, doses of Table 1
Text: Test 1 [Effects on Gastric and Colonic Motor Activity]
Force transducers (“F-12IS”, trade name; manufactured by Star Medical Technologies, Inc.) were chronically sutured in the gastric antrum and large intestines of male dogs (body weight: 9 to 11 kg, 5 to 6 dogs per group) (Itoh, Z. et al., Am. J. Dig. Dis. 22, 117-124, 1977). Contraction signals from the respective regions in postcibal period were amplified and recorded (“RTA-1200”, trade name; manufactured by Nihon Kohden Corporation). The contraction signals, which had been collected in a computer, were analyzed by using an analysis program (“DSSDDWHD V.30”, trade name; prepared by Nihon Kohden Corporation), whereby motor indexes were calculated. The test drugs were administered through catheters which had been chronically indwelled beforehand in the duodenum, respectively. Supposing that the coefficient of motor 30 minutes before the administration of drug was 100%, the results were calculated as percents of motor index until 1 hour after the administration.

| Structure (SMILES) | Death (ICR mice) | Effect on colonic motility (in words) [1] |
| --- | --- | --- |
| COc1cc(O)c(C(=O)Nc2nc(C(=O)NCCN(C(C)C)C(C)C)cs2)cc1OC.Cl.O.O.O [Compound 1, N-(N′,N′-diisopropylaminoethyl)-[2-(2-hydroxy-4,5-dimethoxybenzoylamino)-1,3-thiazol-4-yl]carboxamide HCL trihydrate] | No case of death | marked enhancement of colonic motor activity |
| CC(C)N(CCNC(=O)c1csc(NC(=O)c2cccc(C#N)c2)n1)C(C)C.Cl [Compound 2, N-(N′,N′-diisopropylaminoethyl)-[2-(3-cyanobenzoyl-amino)-1,3-thiazol-4-yl]carboxamide hydrochloride] | No case of death | marked enhancement of colonic motor activity |
| CC(C)N(CCNC(=O)c1csc(NC(=O)c2cccc(N)c2)n1)C(C)C [Compound 3, N-(N′,N′-diisopropylaminoethyl)-[2-(3-aminobenzoyl-amino)-1,3-thiazol-4-yl]carboxamide] | No case of death | marked enhancement of colonic motor activity |
